Measurements: patent US9340579B2, “DPP-4 inhibitor” (NIPPI, INCORPORATED, priority 2011, dated 2016)
Part of at least one peptide drawing is inferred or uncertain, most often the ends. Square brackets hold non-standard residues; d marks the D form. Peptide text beside a SMILES is read from it. Hyp = O=C(O)[C@@H]1C[C@@H](O)CN1

Amino acid sequences for entries named in this document (tags omitted). A change or cut given only in a name is not applied to a line headed by its entry.
UniProt P22411: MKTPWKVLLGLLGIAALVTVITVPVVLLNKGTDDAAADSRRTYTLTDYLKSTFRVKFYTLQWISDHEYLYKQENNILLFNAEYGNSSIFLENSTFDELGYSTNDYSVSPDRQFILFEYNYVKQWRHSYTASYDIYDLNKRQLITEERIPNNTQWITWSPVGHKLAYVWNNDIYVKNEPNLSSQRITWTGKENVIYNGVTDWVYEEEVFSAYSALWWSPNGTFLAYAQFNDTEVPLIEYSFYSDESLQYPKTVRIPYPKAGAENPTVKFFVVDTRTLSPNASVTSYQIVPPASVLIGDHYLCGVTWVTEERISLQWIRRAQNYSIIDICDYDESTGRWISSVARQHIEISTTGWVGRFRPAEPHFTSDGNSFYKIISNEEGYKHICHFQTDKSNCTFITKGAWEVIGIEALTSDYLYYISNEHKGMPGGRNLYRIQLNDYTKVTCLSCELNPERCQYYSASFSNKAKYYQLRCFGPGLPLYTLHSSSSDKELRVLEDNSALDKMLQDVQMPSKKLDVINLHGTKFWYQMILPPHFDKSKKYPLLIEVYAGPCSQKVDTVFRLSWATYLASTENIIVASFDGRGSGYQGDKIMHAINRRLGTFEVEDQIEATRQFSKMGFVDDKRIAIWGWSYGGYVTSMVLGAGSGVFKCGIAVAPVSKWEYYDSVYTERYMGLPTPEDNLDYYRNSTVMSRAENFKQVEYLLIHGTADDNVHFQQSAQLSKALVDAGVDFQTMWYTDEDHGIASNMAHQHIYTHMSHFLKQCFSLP

Biological target: T1, DPP-4 (manufactured by Sigma, derived from porcine kidney) (Sus scrofa, UniProt P22411)
T1 construct: derived from porcine kidney; purchased Sigma; host or cells: porcine kidney (tissue-derived)
Experiment: DPP-4 inhibition rate and IC50 measurement, fluorescence of AMC freed from Gly-Pro-MCA
Type: biochemical
Conditions: Table 2; sample concentration changed between 0.001 and 7.2 μmol/ml
Description: A sample liquid 35 μl obtained by dissolving a sample 1 mg in 50 mM tris-hydrochloric acid buffer (pH 7.5) 1 ml and DPP-4 (manufactured by Sigma, derived from porcine kidney; 8.6 mU/ml) 15 μl that had been dissolved in 50 mM tris-hydrochloric acid buffer (pH 7.5) were mixed in a microtiter plate well (manufactured by NUNC, trade name “237015”) and incubated at 37° C. for 10 minutes.
Thereto, 50 μl of a substrate solution (one obtained by dissolving glycyl-Pro-4-methylcoumarin-7-amide (Gly-Pro-MCA) in 50 mM tris-hydrochloric acid buffer (pH 7.5) so as to be 10 μM) that had in advance heated to and kept at 37° C. was added, mixed, and allowed to react at 37° C. for 20 minutes.
The fluorescence intensity of 7-amino-4-methylcoumarin (AMC) that was freed by DPP-4 was measured with time by a microplate reader type fluorescence detector (manufactured by Corona Electric Co., Ltd., trade name “SH-9000”). Note that the measurement wavelength was an excitation wavelength of 380 nm and a measurement wavelength of 460 nm. Note that one obtained by using the same amount of 50 mM tris-hydrochloric acid buffer (pH 7.5) in replace of the sample was used as a control; and the fluorescence intensity thereof was measured. […]

CC(C)C[C@H](N)C(=O)N1C[C@H](O)C[C@H]1C(=O)O [Example 20, Leu-Hyp] (H-Leu-[Hyp]-OH)
IC50: 1320 µM
